Consider 1 molecule from publication PMC11312562.

Results are given in words; binding and its absence hold for the method and conditions named. Binding seen in cells or lysates may run through a third protein. Binding calls can cover weak binding; strength is not graded here.

This assay has as its target hexahistidyl-tagged ThsB1 (His6-ThsB1) (Staphylococcus aureus 08BA02176). Kind of assay: pull-down; cobalt resin on lysates of S. aureus RN4220 expressing His6-tagged ThsB1 or ThsB2 alone, not as a pair, infected with Φ80α-vir (MOI 10) for 20 minutes; Coomassie SDS-PAGE.

B1: major head protein (Mhp) of phage Φ80α-vir (protein, UniProt A4ZFB3 15-324)
chain: ASNNVKPQVFNPDNVMMHEKKDGTLMNEFTTPILQEVMENSKIMQLGKYEPMEGTEKKFTFWADKPGAYWVGEGQKIETSKATWVNATMRAFKLGVILPVTKEFLNYTYSQFFEEMKPMIAEAFYKKFDEAGILNQGNNPFGKSIAQSIEKTNKVIKGDFTQDNIIDLEALLEDDELEANAFISKTQNRSLLRKIVDPETKERIYDRNSDSLDGLPVVNLKSSNLKRGELITGDFDKLIYGIPQLIEYKIDETAQLSTVKNEDGTPVNLFEQDMVALRATMHVALHIADDKAFAKLVPADKRTDSVPGEV
B1: the binding result was “binds”.
